# Assay results as given in the supplement of paper PMC12819154, “High-throughput peptide-centric local stability assay extends protein–ligand identification to membrane proteins, tissues and bacteria” (Nature Structural & Molecular Biology, 2025).
# Sequences of proteins named here, by UniProt entry; tags and fusion partners are left off. A change or cut given only in a name is not applied to a line headed by its entry.
# UniProt Q8NHV4, whole entry: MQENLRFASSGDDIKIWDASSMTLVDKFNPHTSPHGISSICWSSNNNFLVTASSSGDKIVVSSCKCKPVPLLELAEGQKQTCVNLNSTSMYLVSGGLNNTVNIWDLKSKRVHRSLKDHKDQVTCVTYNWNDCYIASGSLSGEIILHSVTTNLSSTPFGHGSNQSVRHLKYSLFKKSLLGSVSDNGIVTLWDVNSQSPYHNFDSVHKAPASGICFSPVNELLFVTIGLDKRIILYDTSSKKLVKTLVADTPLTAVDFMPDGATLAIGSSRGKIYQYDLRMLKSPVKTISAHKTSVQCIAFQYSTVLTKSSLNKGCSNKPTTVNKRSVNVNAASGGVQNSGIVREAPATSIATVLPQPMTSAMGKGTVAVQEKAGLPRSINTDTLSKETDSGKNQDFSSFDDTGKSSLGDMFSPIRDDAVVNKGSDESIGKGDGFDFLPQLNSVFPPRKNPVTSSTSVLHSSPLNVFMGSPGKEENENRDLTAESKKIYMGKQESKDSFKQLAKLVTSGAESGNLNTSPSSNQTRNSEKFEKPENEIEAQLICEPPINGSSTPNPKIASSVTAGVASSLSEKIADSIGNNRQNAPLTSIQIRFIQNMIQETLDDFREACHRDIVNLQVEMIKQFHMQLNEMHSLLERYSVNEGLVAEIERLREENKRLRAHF
# UniProt Q8NBA8: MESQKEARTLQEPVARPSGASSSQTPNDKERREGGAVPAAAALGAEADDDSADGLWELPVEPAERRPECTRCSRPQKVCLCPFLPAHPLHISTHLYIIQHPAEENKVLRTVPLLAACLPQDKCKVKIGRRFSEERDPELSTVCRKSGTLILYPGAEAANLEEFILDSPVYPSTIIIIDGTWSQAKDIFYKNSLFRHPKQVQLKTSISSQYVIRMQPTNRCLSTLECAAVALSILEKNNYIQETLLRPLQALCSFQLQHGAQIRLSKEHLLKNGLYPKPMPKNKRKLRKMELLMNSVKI
# UniProt Q8N5Y2: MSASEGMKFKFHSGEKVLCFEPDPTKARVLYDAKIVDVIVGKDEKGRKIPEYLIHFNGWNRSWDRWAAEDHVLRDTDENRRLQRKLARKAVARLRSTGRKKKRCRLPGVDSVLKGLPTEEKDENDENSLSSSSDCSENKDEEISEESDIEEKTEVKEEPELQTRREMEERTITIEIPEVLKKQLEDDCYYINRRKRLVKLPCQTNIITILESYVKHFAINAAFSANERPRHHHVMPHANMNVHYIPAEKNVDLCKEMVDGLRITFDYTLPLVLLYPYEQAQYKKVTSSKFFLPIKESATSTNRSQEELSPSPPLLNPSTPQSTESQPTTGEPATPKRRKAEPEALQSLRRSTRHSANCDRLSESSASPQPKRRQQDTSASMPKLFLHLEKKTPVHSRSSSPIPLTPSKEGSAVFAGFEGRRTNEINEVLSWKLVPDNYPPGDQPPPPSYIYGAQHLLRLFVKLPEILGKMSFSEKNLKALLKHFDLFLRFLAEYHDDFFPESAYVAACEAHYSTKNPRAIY
# UniProt Q8NC96: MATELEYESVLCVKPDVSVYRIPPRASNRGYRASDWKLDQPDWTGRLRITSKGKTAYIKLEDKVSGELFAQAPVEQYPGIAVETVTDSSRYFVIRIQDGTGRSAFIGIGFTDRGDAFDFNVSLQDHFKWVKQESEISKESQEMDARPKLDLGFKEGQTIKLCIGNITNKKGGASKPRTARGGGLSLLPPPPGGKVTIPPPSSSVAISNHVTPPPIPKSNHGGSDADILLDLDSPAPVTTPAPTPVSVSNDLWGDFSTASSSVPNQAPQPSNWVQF
# UniProt Q8TBB5: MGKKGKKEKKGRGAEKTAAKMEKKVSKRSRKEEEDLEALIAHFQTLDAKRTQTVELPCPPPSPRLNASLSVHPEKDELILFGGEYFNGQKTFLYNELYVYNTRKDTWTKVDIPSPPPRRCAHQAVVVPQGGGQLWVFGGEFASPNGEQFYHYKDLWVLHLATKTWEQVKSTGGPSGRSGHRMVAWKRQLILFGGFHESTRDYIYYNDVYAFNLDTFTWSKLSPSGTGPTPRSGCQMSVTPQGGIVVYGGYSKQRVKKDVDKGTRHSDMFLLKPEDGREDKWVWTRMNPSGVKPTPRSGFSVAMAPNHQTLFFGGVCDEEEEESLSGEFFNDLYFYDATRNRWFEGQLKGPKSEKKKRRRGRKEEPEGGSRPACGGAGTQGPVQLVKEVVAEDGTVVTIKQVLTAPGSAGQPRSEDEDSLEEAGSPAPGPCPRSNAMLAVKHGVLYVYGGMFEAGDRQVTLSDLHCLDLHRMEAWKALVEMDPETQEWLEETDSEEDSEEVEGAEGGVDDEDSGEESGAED
# UniProt Q8ND56: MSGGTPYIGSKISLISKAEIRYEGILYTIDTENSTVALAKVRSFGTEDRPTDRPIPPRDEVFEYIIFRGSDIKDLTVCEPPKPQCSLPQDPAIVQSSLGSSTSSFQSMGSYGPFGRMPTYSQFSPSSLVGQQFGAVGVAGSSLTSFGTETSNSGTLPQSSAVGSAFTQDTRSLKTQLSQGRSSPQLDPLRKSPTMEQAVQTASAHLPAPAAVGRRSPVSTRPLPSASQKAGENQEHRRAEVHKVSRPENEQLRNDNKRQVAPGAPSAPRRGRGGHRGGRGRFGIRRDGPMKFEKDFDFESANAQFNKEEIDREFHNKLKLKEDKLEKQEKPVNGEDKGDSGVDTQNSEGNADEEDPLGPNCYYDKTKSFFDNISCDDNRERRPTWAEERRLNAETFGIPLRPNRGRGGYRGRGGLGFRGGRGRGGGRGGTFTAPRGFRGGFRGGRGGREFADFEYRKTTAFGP
# UniProt Q8N5I9: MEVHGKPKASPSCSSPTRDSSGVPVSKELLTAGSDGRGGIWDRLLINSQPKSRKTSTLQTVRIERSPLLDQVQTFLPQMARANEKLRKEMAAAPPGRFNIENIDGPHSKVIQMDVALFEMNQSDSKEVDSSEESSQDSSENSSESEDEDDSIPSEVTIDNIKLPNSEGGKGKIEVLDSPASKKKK
# UniProt Q8TAF3: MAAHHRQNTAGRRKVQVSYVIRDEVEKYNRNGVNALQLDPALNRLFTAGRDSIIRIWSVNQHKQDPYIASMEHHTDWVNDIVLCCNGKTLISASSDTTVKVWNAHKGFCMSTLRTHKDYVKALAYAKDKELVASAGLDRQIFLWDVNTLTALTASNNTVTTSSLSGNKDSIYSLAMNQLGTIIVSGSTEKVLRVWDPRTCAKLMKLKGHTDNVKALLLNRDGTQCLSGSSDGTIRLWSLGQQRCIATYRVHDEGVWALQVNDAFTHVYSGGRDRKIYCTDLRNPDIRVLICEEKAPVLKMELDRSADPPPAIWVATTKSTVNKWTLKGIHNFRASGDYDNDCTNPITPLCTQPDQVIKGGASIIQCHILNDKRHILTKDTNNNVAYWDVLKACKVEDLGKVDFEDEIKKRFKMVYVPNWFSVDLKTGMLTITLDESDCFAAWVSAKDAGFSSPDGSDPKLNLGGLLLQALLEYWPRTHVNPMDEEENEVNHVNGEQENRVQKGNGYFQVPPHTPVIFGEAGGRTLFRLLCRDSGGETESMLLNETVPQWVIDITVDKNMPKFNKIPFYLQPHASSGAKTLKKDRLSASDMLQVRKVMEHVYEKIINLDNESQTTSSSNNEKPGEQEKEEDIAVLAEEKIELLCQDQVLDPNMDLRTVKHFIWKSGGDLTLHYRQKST
# UniProt Q8N823: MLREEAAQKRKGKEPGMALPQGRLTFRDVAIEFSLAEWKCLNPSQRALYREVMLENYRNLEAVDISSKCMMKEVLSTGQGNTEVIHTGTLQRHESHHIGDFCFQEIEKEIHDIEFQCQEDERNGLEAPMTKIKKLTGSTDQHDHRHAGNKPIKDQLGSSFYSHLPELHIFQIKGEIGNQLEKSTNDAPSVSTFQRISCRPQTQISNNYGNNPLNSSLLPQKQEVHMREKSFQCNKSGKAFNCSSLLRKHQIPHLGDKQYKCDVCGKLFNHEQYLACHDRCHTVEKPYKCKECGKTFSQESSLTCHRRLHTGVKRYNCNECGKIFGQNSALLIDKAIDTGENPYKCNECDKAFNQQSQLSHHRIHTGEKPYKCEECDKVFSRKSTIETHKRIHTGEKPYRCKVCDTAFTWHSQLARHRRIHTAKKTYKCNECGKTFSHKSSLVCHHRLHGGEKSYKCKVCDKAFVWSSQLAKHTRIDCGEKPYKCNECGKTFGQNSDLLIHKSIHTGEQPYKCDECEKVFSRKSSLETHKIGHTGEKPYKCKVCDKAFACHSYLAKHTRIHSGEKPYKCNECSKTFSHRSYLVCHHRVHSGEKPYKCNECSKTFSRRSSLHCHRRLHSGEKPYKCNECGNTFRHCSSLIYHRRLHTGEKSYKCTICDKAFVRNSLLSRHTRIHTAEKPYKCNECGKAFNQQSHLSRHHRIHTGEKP
# UniProt Q8NDT2: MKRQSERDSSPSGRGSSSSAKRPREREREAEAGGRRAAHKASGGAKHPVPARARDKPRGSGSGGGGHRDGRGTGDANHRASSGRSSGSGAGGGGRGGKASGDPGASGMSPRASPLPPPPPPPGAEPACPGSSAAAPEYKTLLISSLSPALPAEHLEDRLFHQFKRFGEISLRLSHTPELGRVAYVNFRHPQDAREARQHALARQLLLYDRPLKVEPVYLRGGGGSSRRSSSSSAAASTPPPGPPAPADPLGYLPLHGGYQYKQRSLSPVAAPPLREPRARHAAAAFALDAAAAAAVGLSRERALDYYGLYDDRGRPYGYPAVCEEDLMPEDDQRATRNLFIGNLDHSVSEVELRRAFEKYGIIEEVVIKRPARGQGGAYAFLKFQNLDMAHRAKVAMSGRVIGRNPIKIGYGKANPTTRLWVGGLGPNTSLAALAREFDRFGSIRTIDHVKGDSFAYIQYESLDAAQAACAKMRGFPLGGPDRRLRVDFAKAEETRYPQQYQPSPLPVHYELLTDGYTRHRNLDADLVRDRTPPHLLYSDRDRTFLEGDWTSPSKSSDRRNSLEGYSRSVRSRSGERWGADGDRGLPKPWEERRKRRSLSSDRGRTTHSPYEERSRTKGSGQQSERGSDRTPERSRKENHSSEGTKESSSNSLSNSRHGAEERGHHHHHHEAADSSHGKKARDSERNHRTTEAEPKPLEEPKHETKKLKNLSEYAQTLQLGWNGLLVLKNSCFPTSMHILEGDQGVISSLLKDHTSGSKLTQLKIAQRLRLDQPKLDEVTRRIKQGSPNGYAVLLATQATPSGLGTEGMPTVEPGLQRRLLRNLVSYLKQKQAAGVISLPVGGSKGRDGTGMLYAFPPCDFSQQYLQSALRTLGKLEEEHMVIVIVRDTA
# UniProt Q8NB14: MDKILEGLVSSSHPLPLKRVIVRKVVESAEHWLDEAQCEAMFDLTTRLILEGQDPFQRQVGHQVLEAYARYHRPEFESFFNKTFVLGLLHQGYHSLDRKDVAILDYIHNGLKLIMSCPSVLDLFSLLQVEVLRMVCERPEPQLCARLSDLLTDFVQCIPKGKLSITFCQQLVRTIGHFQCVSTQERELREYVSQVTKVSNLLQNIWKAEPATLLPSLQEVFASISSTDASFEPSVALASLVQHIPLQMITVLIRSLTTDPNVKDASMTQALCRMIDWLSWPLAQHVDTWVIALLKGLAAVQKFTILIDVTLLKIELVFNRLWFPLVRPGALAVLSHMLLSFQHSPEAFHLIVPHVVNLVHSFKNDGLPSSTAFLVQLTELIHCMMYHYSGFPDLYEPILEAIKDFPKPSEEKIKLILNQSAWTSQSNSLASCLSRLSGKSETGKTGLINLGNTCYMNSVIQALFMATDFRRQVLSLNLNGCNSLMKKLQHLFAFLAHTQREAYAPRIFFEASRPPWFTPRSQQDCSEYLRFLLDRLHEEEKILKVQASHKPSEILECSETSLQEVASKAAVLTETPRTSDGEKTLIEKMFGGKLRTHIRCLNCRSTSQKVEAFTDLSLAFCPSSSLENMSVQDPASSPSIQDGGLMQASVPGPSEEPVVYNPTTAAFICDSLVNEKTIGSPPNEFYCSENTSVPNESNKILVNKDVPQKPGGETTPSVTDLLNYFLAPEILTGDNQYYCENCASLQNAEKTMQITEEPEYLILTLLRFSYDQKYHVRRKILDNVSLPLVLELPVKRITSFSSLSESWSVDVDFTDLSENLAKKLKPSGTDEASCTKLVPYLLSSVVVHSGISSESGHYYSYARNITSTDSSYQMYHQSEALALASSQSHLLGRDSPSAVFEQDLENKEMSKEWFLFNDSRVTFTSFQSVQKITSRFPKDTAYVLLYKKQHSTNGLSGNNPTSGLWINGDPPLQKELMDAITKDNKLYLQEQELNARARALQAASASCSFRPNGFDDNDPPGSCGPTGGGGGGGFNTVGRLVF
# UniProt Q8NHG8: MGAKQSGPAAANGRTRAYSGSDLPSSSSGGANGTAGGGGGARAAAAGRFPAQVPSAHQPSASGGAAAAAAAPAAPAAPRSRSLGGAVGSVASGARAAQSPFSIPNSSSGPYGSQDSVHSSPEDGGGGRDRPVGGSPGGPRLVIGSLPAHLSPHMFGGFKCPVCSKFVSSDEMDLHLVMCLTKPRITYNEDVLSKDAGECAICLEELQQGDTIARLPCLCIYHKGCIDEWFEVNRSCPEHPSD
# This is one part of the list. Most values lie at the level of the controls, where differences are scatter.
# Compound: CN[C@@H]1C[C@H]2O[C@@](C)([C@@H]1OC)n1c3ccccc3c3c4c(c5c6ccccc6n2c5c31)C(=O)NC4 [staurosporine]
# Assay: log2 fold change of tryptic peptide abundance, ligand vs vehicle (limited proteolysis) (log2 ratio); higher = more trypsin-susceptible (destabilized)
# Details: ligand concentration: 20 uM; sample: K562 cleared lysate; digestion: 4 min, 22 C (HT-PELSA RT4min, Orbitrap Astral)
row,Target,log2 fold change
1,"UniProt Q8N4J0 (peptide sequence: WGSAAAVSAAAAAATR, peptide start residue: 37)",-0.0989
2,"NEDD1 (peptide sequence: SSLGDMFSPIRDDAVVNK, peptide start residue: 404) (UniProt Q8NHV4)",-0.147
3,"DTWD2 (peptide sequence: PSGASSSQTPNDKER, peptide start residue: 17) (UniProt Q8NBA8)",-0.463
4,"PPHLN1 (peptide sequence: YYSHVDYR, peptide start residue: 52) (UniProt Q8NEY8)",0.721
5,"OGFOD1 (peptide sequence: RPAEPGPAR, peptide start residue: 5) (UniProt Q8N543)",-0.163
6,"UniProt Q8NC60 (peptide sequence: AGLLLAPGHQGPQRPVK, peptide start residue: 275)",-0.857
7,"MSL3 (peptide sequence: SSSPIPLTPSK, peptide start residue: 398) (UniProt Q8N5Y2)",0.496
8,"NECAP1 (peptide sequence: ESQEMDARPK, peptide start residue: 139) (UniProt Q8NC96)",0.433
9,"MCFD2 (peptide sequence: DDDKNNDGYIDYAEFAK, peptide start residue: 127) (UniProt Q8NI22)",-0.0979
10,"CXorf38 (peptide sequence: LDSQEPGR, peptide start residue: 305) (UniProt Q8TB03)",-0.156
11,"NGDN (peptide sequence: FKPHPSNMMSK, peptide start residue: 130) (UniProt Q8NEJ9)",0.812
12,"ANKRD52 (peptide sequence: GSTECVEVLTAHGASALIK, peptide start residue: 629) (UniProt Q8NB46)",0.503
13,"TTC30B (peptide sequence: ACLYAEATR, peptide start residue: 92) (UniProt Q8N4P2)",0.183
14,"KLHDC4 (peptide sequence: LSPSGTGPTPR, peptide start residue: 221) (UniProt Q8TBB5)",-0.405
15,"HDDC3 (peptide sequence: LQVEQAPHSSPGAK, peptide start residue: 103) (UniProt Q8N4P3)",0.17
16,"LSM14A (peptide sequence: RPTWAEER, peptide start residue: 382) (UniProt Q8ND56)",0.214
17,"UniProt Q8N8E2 (peptide sequence: ALSAESEVEEPARGPGEAR, peptide start residue: 94)",-0.0151
18,"UniProt Q8N531 (peptide sequence: LSGCHGVTADALVMLAK, peptide start residue: 227)",0.463
19,"UniProt Q8NG31 (peptide sequence: TWVQEEEDIHKEK, peptide start residue: 1789)",-0.283
20,"C12orf45 (peptide sequence: TSTLQTVR, peptide start residue: 55) (UniProt Q8N5I9)",-0.193
21,"ZBTB2 (peptide sequence: LGRDPRPQTSR, peptide start residue: 155) (UniProt Q8N680)",0.406
22,"TET1 (peptide sequence: VKVEPLDSLSLFHLK, peptide start residue: 1255) (UniProt Q8NFU7)",-0.526
23,"WDR48 (peptide sequence: LSASDMLQVR, peptide start residue: 585) (UniProt Q8TAF3)",0.329
24,"UniProt Q8N823 (peptide sequence: AFNCSSLLR, peptide start residue: 239)",-0.23
25,"RBM15B (peptide sequence: YGIIEEVVIK, peptide start residue: 360) (UniProt Q8NDT2)",0.633
26,"USP38 (peptide sequence: MDKILEGLVSSSHPLPLKR, peptide start residue: 1) (UniProt Q8NB14)",0.2
27,"ZNRF2 (peptide sequence: SLGGAVGSVASGAR, peptide start residue: 82) (UniProt Q8NHG8)",0.0151
28,"IQUB (peptide sequence: QYAMQRPNDDSLAFLDKIK, peptide start residue: 98) (UniProt Q8NA54)",-0.191

# Random excerpt: two entries already listed
row,Target,log2 fold change
25,"RBM15B (peptide sequence: YGIIEEVVIK, peptide start residue: 360) (UniProt Q8NDT2)",0.633
18,"UniProt Q8N531 (peptide sequence: LSGCHGVTADALVMLAK, peptide start residue: 227)",0.463
